# Measurements reported in PubChem BioAssay AID1671195 (Yale University, 2021).
# Aim: 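Knockdowns that increase or decrease uptake of fluorescent LDL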 (primary screen)
# Cell system: human Huh7 hepatoma cells
# Reagent: siRNA pool against human genes, 18 nM
# Duration: about 2 to 2.5 days of knockdown, then 8 h LDL uptake
# Conditions: DiI-labelled LDL at 30 µg/ml for 8 h, in lipoprotein-deficient serum medium
# Detection: 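Per-cell DiI-LDL intensity by automated imaging; well means scaled to the plate median and given as a robust z-score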
# Scale: robust z-score: higher = more LDL uptake after knockdown
# Active means: 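a gene counts as active if at least two replicate z-scores exceed ±2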
# Shown is a random part of about 22,000 reagents tested. About 1,510 of them (6.9%) were called active. 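Active includes knockdowns raising or lowering LDL uptake; positive z-scores mean more uptake, negative mean less.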 Unmarked entries are inactive. Reagents against one gene are numbered here.
The opening 3 entries, to show the layout:
Target gene,reagent,"robust z-score, replicate 1","robust z-score, replicate 2","robust z-score, replicate 3"
SEMA3G,1,1.73,0.941,0.671
BTAF1,1,5.23 (active),2.84,3.4
NOP56,1,-0.696,-0.998,-0.721

Main list, from the first entry:
Target gene,reagent,"robust z-score, replicate 1","robust z-score, replicate 2","robust z-score, replicate 3"
SEMA3G,1,1.73,0.941,0.671
BTAF1,1,5.23 (active),2.84,3.4
NOP56,1,-0.696,-0.998,-0.721
VCPIP1,1,0.526,-0.546,0.122
LTB4R,1,-0.314,-0.553,0.373
OR4K17,1,-0.42,-0.664,-0.694
DLG3,1,1.49,1.87,2.19
LOC389185 (retired record),1,2.58,1.39,0.769
ADGRA2,1,0.235,2.5,0.878
ARFGEF1,1,-0.53,-0.365,-1.21
LMBRD1,1,-1.23,-1.36,1.87
RPE65,1,0.352,0.287,0.062
GRPEL2,1,0.305,0.248,0.799
MTARC2,1,0.576,0.254,-1.18
EXOC2,1,1.84,2.48,-0.655
LOC442140 (retired record),1,-1.46,-0.873,-1
ALG14,1,0.416,0.561,0.585
COPS8-DT,1,-0.428,-0.545,-0.571
DICER1-AS1,1,-1.49,-0.874,-0.679
HOXB8,1,1.78,1.05,2.45
OR10A3,1,-0.918,-1.45,-1.48
EGR4,1,-0.622,-0.0539,-0.475
TTC8,1,-0.46,-0.288,0.0899
LOC390550 (retired record),1,0.605,0.63,0.719
MPO,1,-0.342,0.554,0.0995
SCUBE3,1,0.673,0.815,1.04
MTERF1,1,-0.246,-0.443,0.215
PSMF1,1,0.323,0.553,-0.687
OR4K13,1,-0.113,-0.521,-0.247
KLC3,1,1.2,-0.356,0.476
HAND1,1,2.2,1.41,1.74
NICN1,1,0.887,1.04,2.29
TSSC4,1,-1.12,-0.464,-1.69
SLC45A1,1,-1.16,-1.11,-1.5
LOC440386 (retired record),1,-0.41,0.381,-0.0752
SYNJ2,1,1.51,0.882,0.861
MMS22L,1,-0.869,-1.14,-0.666
GJB1,1,0.0149,-0.574,-0.709
GTF2A2,1,-0.644,-0.713,-0.474
PI3,1,-0.387,-0.573,-0.558
IGFBP6,1,-0.252,1.61,0.0487
SLCO1B7,1,-0.278,-0.192,0.0862
ZNF530,1,-0.973,-1.16,-0.998
CLEC3B,1,0.616,-0.968,1.88
USP11,1,1.78,1.73,2
RAB8B,1,-0.789,2.27,0.511
ZNF385B,1,0.543,0.541,0.255
DOC2B,1,-0.8,-0.49,-1.03
TMEM88,1,1.81,0.0573,0.343
LOC441091 (retired record),1,2.35 (active),3.13,2.42
CACNA1H,1,-0.368,0.0512,-0.614
METAP2,1,0.117,-0.129,-0.103
QSOX1,1,0.277,-0.701,-0.222
CAPS,1,-0.726,0.0537,-1
NME7,1,1.2,0.00991,0.453
TRAPPC2L,1,2.19 (active),2.02,0.327
TAP1,1,1.55,1.85,1.21
SCFD1,1,0.307,-0.398,0.51
CTDSP2,1,1.21,0.439,1.23
LOC256483 (retired record),1,-1.13,-0.919,-0.897
LOC389958 (retired record),1,-0.142,-0.166,-0.304
NPR3,1,0.781,-0.511,-0.153
NPR3,2,-1.11,-0.551,-0.738
LOC441055 (retired record),1,-0.412,-0.857,-0.725
SMARCD1,1,1.15,2.36,0.608
SLC39A9,1,-0.0276,-0.212,-0.337
SH2D5,1,0.772,1.03,0.809
RCAN2,1,0.916,-0.058,0.0521
